Values from PubChem BioAssay AID1259275 (Sanger Institute, 2017).
Shown is an unselected part of 794 reagents tested. 13 of all reagents (1.6%) were called active. 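Calls mark knock-downs lethal by themselves, not drug synergy; drugs went in a day after transfection, with DMSO as vehicle.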 Further read-outs or replicates are left out here. Not stated in the record: the amount of reagent, the time to read-out.

- Purpose: 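Knock-downs that cut viability on their own or combined with BYL719, cetuximab or trametinib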 (primary screen)
- System: COLO320HSR human colorectal cancer cells
- Reagents: siRNA pool against human genes
- Treatment: anchor drug added one day after transfection: BYL719 at 1 µM, cetuximab at 5 µg/ml or trametinib at 10 nM; DMSO as vehicle arm
- Detection: 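Viability averaged over replicates as a fraction of the non-targeting pool, a robust z-score for knock-down alone, and synergy scores with BYL719 (1 µM), cetuximab (5 µg/ml) or trametinib (10 nM)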
- Direction: robust z-score, siRNA alone: higher = more viable cells; strongly negative means essential
- Active means: 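a gene is called essential when its robust z-score without drug falls below -3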
- Calls: active = essential (siRNA alone); inactive = no change (siRNA alone)

PTK2B (protein tyrosine kinase 2 beta)
- robust z-score, siRNA alone: -0.485
- Outcome: inactive

MAST1 (microtubule associated serine/threonine kinase 1)
- robust z-score, siRNA alone: 0.726
- Outcome: inactive

RSKR (ribosomal protein S6 kinase related)
- robust z-score, siRNA alone: 0.202
- Outcome: inactive

IP6K2 (inositol hexakisphosphate kinase 2)
- robust z-score, siRNA alone: 0.644
- Outcome: inactive

SCYL3 (SCY1 like pseudokinase 3)
- robust z-score, siRNA alone: 0.715
- Outcome: inactive

PIK3CD
- robust z-score, siRNA alone: 0.396
- Outcome: inactive

TAF1L (TATA-box binding protein associated factor 1 like)
- robust z-score, siRNA alone: 0.726
- Outcome: inactive

PIM1 (Pim-1 proto-oncogene, serine/threonine kinase)
- robust z-score, siRNA alone: -1.98
- Outcome: inactive

DAPK3 (death associated protein kinase 3)
- robust z-score, siRNA alone: 0.544
- Outcome: inactive

TEX14 (testis expressed 14, intercellular bridge forming factor)
- robust z-score, siRNA alone: -0.412
- Outcome: inactive

MAGI1
- robust z-score, siRNA alone: -1.88
- Outcome: inactive

BMP2K (BMP2 inducible kinase)
- robust z-score, siRNA alone: -0.792
- Outcome: inactive

ADCK2 (aarF domain containing kinase 2)
- robust z-score, siRNA alone: -0.656
- Outcome: inactive

MAPKAPK3 (MAPK activated protein kinase 3)
- robust z-score, siRNA alone: 0.726
- Outcome: inactive

NEK10 (NIMA related kinase 10)
- robust z-score, siRNA alone: 0.252
- Outcome: inactive

PIP4K2B (phosphatidylinositol-5-phosphate 4-kinase type 2 beta)
- robust z-score, siRNA alone: 0.726
- Outcome: inactive

PPP2R1A (protein phosphatase 2 scaffold subunit Aalpha)
- robust z-score, siRNA alone: 0.535
- Outcome: inactive

CIB2 (calcium and integrin binding family member 2)
- robust z-score, siRNA alone: 0.01
- Outcome: inactive

MAP2K7 (mitogen-activated protein kinase kinase 7)
- robust z-score, siRNA alone: -1.79
- Outcome: inactive

EPHA3 (EPH receptor A3)
- robust z-score, siRNA alone: -0.396
- Outcome: inactive

ROR1 (ROR family WNT receptor 1)
- robust z-score, siRNA alone: -0.144
- Outcome: inactive

PLK3 (polo like kinase 3)
- robust z-score, siRNA alone: 0.344
- Outcome: inactive

IDH2 (isocitrate dehydrogenase (NADP(+)) 2)
- robust z-score, siRNA alone: 0.726
- Outcome: inactive

CDK5 (cyclin dependent kinase 5)
- robust z-score, siRNA alone: 0.726
- Outcome: inactive

PRP4K (pre-mRNA processing factor kinase PRP4K)
- robust z-score, siRNA alone: -0.673
- Outcome: inactive

PKMYT1 (protein kinase, membrane associated tyrosine/threonine 1)
- robust z-score, siRNA alone: -0.364
- Outcome: inactive

PAK3 (p21 (RAC1) activated kinase 3)
- robust z-score, siRNA alone: 0.373
- Outcome: inactive

MAPK1 (mitogen-activated protein kinase 1)
- robust z-score, siRNA alone: -0.271
- Outcome: inactive

WNK4 (WNK lysine deficient protein kinase 4)
- robust z-score, siRNA alone: 0.726
- Outcome: inactive

MAP3K12 (mitogen-activated protein kinase kinase kinase 12)
- robust z-score, siRNA alone: 0.726
- Outcome: inactive

NUAK2 (NUAK family kinase 2)
- robust z-score, siRNA alone: -1.04
- Outcome: inactive

ETNK1 (ethanolamine kinase 1)
- robust z-score, siRNA alone: 0.726
- Outcome: inactive

MAPKAPK2 (MAPK activated protein kinase 2)
- robust z-score, siRNA alone: 0.726
- Outcome: inactive

MUSK (muscle associated receptor tyrosine kinase)
- robust z-score, siRNA alone: -0.815
- Outcome: inactive

STYK1 (STY kinase 1)
- robust z-score, siRNA alone: -0.175
- Outcome: inactive

TBCK (TBC1 domain containing kinase)
- robust z-score, siRNA alone: 0.726
- Outcome: inactive

6 entries from above, set out differently:
target gene	robust z-score, siRNA alone	Outcome
NEK10 (NIMA related kinase 10)	0.252	inactive
PIP4K2B (phosphatidylinositol-5-phosphate 4-kinase type 2 beta)	0.726	inactive
PPP2R1A (protein phosphatase 2 scaffold subunit Aalpha)	0.535	inactive
CIB2 (calcium and integrin binding family member 2)	0.01	inactive
MAP2K7 (mitogen-activated protein kinase kinase 7)	-1.79	inactive
EPHA3 (EPH receptor A3)	-0.396	inactive
